Patent publication US20030162248A1
These are yes or no findings as the source states them, for the method shown. Some entries that bind do so weakly or less than the wild type.

Chains of the proteins cited; added tags and fusions are not shown. Lines headed by an entry give the natural chain unless they say otherwise; changes in a name come on top.
UniProt P11226: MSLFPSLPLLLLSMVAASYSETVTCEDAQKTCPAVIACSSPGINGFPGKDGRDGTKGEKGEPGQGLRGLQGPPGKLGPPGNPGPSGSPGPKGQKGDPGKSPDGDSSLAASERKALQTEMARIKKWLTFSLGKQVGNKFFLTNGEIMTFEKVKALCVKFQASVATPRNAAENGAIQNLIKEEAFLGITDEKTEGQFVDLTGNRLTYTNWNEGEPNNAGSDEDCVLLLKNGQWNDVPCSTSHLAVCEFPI

What was measured:
[1] = target: HIV-gp120 (HIV-1 IIIB gp120) (HIV-1 (IIIB)) (UniProt P04578); test: lectin blot: viral protein on SDS-PAGE, transferred to membrane, overlaid with 1.0 ug/ml rhMBP in Ca2+ buffer, detected with anti-human MBP polyclonal antibody
[2] = target: HIV-gp160 (HIV-1 IIIB gp160) (HIV-1 (IIIB)) (UniProt P04578); test: as above

Substance: Recombinant Human Mannan-Binding Protein (rhMBP) (from UniProt P11226 21-248)
- binding [1]: binds
- binding [2]: binds
